Assay results taken from the supplement of paper PMC3741180, “A Novel High Throughput Biochemical Assay to Evaluate the HuR Protein-RNA Complex Formation” (PLoS ONE, 2013).
Some of the results follow. Repeats in this data set agree poorly, so a single value says little.

Amino acid sequences for entries named in this document (tags omitted).
UniProt Q15717, whole entry: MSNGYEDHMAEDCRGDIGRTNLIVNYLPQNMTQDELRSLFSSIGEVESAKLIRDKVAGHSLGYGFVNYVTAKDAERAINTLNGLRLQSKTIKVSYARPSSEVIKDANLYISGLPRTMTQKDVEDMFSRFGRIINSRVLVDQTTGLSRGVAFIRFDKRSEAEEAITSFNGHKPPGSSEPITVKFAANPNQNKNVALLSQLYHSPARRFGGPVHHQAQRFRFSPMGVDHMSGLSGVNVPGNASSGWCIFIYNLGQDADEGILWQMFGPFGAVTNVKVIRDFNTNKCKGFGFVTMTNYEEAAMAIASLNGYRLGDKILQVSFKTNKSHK

What follows are compounds tested against HuR (ELAVL1) - TNFalpha ARE RNA complex (UniProt Q15717) (assay: AlphaScreen HuR-RNA complex signal Z-score relative to positive controls (secondary screen) (Z-score (SD units of positive control)); higher = more complex signal). Details: screen stage: secondary re-screen.

| SMILES | AlphaScreen HuR-RNA complex signal Z-score |
| --- | --- |
| Cc1ccc(/N=C/N(C)/C=N/c2ccc(C)cc2C)c(C)c1 | 0.731 |
| C[CH2][Hg][S]c1ccccc1C(=O)[O-].[Na+] | 1.84 |
| [O-][n+]1ccccc1[S-].[O-][n+]1ccccc1[S-].[Zn+2] | 0.889 |
| CCC(C)C(=O)OC1CC2(C)C(c3ccoc3)OC(=O)CC23OC2(C)OC34C(OC(=O)C(C)C)C3(O)C(OC(=O)C5(C)OC5C)C5(C)CC3(O)C(C)(C5CC(=O)OC)C14O2 (configuration not stated) | -0.0335 |
| O=C(O)CCCO | 0.777 |
| CC(NC(C)(C)C)C(=O)c1cccc(Cl)c1 (configuration not stated) | 2.13 |
| C[C@H]1C(=O)O[C@@H]2CCN3CC=C(COC(=O)[C@](C)(O)[C@]1(C)O)[C@H]23 | 0.471 |
| CCCCCCCCCCCCCCCC[n+]1ccccc1 | -0.413 |
| O=[N+]([O-])c1cc([As](=O)(O)O)ccc1O | 1.85 |
| CC(=O)O[C@H]1C[C@@H](OC(C)=O)C(C)(C)C2C[C@@H](OC(C)=O)[C@]3(C)C(CC[C@@]4(C)[C@H](c5ccoc5)C(=O)[C@H]5O[C@]543)[C@]21C (some centres not stated) | 0.786 |
| CN(C)C(=S)SSC(=S)N(C)C | 2.33 |
| CN1CCc2cc3c(cc2[C@H]1[C@@H]1OC(=O)c2c1ccc1c2OCO1)OCO3 | 0.895 |
| c1ccc2c(c1)sc1ccccc12 | 1.24 |
| CC(C)N1C(=O)c2ccccc2NS1(=O)=O | 0.545 |
| CO[C@H]1C[C@H](O[C@H]2CC[C@]3(C=O)[C@H]4CC[C@]5(C)[C@@H](C6=CC(=O)OC6)CC[C@]5(O)[C@@H]4CC[C@]3(O)C2)O[C@H](C)[C@H]1O | 0.603 |
| CN1C[C@H](CNC(=O)OCc2ccccc2)C[C@@H]2c3cccc4c3c(cn4C)C[C@H]21 | 0.0392 |
| CN1[C@H]2C[C@H](OC(=O)[C@H](CO)c3ccccc3)C[C@@H]1[C@@H](O)C2 | 0.506 |
| CN1C[C@H](C(=O)N[C@]2(C)O[C@@]3(O)[C@@H]4CCCN4C(=O)[C@H](Cc4ccccc4)N3C2=O)C[C@@H]2c3cccc4[nH]cc(c34)C[C@H]21 | 0.646 |
| C[C@]12CCC(=O)C=C1C=C[C@@H]1[C@@H]2CC[C@@]2(C)[C@H]1CC[C@@]2(O)CCC(=O)O | 1.61 |
| Nc1ccc([As](=O)(O)O)cc1 | -0.219 |
| CC1(C)C(=O)C=C[C@]2(C)[C@H]3CC[C@@]4(C)[C@H](c5ccoc5)OC(=O)[C@H]5O[C@]54[C@]3(C)[C@H](O)C[C@@H]12 | -0.11 |
| C[C@@H](CO)NC(=O)[C@@H]1C=C2c3cccc4[nH]cc(c34)C[C@H]2N(C)C1 | 0.741 |
| NCCc1ccc(O)cc1 | 0.456 |
| C[N+]12CCC(CC1)C(OC(=O)C(O)(c1ccccc1)c1ccccc1)C2 (configuration not stated) | 0.618 |
| CC[C@H]1CN2CCc3cc(OC)c(OC)cc3[C@@H]2C[C@@H]1C[C@H]1NCCc2cc(OC)c(OC)cc21 | 0.466 |
| CC[C@@H](C)C(=O)O[C@H]1[C@H](O)[C@H]2[C@@H](CN3C[C@@H](C)CC[C@H]3[C@@]2(C)O)[C@@H]2C[C@]34O[C@]5(O)[C@@H](OC(=O)[C@@](C)(O)CC)CC[C@@]3(C)[C@@H]5[C@@H](OC(C)=O)[C@@H](OC(C)=O)[C@H]4[C@@]21O | -0.304 |
| Cc1cc(O)ccc1Cl | 0.694 |

Two of the compounds above, with tabs:
SMILES	AlphaScreen HuR-RNA complex signal Z-score
CC1(C)C(=O)C=C[C@]2(C)[C@H]3CC[C@@]4(C)[C@H](c5ccoc5)OC(=O)[C@H]5O[C@]54[C@]3(C)[C@H](O)C[C@@H]12	-0.11
C[C@@H](CO)NC(=O)[C@@H]1C=C2c3cccc4[nH]cc(c34)C[C@H]2N(C)C1	0.741
